Assay results from US20070099871A1, “Bioreductively-activated prodrugs” (ANGIOGENE PHARMACEUTICALS LIMITED, priority 2003, published 2007).

Assay: Steady state radiolysis: drug release after one-electron reduction
Details: isopropanol/water 50:50, N2O-saturated, 60Co 3.9 Gy min^−1, released drug by HPLC

COc1ccc(/C=C\c2cc(OC)c(OC)c(OC)c2)cc1OC(C)(C)c1ccc([N+](=O)[O-])s1 [Example 1]
Radiation chemical yield G, drug released Combretastatin A4: 0.36 µmol/J

COc1ccc(/C=C\c2cc(OC)c(OC)c(OC)c2)cc1OC(=O)OC1(c2ccc([N+](=O)[O-])s2)CCN(C)CC1 [Example 5, 1-(4-Methoxy-3-(1-methyl-4-(5-nitrothien-2-yl)piperidin-4-yl)oxycarbonyloxy)phenyl-2-(3,4,5-trimethoxy)phenyl-Z-ethene]
Radiation chemical yield G, drug released Combretastatin A4: 0.46 µmol/J

CC(C)(OC(=O)Nc1ccn([C@@H]2O[C@H](CO)[C@@H](O)[C@@H]2O)c(=O)n1)c1ccc([N+](=O)[O-])s1 [Example 8, N^4-(2-(5-nitrothien-2-yl)prop-2-yl)oxycarbonyl-1-β-D-arabiuofuranosylcytosine]
Radiation chemical yield G, drug released Cytarabine: 0.38 µmol/J

COc1ccc(/C=C\c2cc(OC)c(OC)c(OC)c2)cc1OC(C)(C)c1ccc([N+](=O)[O-])cc1 [Example 2]
Radiation chemical yield G, drug released Combretastatin A4: 0.16 µmol/J

CCOC(=O)C(C)(Oc1cc(/C=C\c2cc(OC)c(OC)c(OC)c2)ccc1OC)c1ccc([N+](=O)[O-])s1 (stereo not shown) [Example 9, 1-(3-(1-Ethoxycarbonyl-1-(5-nitrothien-2-yl)ethoxy)-4-methoxy-phenyl)-2-(3,4,5-trimethoxyphenyl)-Z-ethene]
Radiation chemical yield G, drug released Combretastatin A4: 0.50 µmol/J

COc1ccc(/C=C\c2cc(OC)c(OC)c(OC)c2)cc1OC(C)(C)c1cnc([N+](=O)[O-])n1C [Example 6]
Radiation chemical yield G, drug released Combretastatin A4: 0.07 µmol/J

CC(C)(Sc1ncnc2[nH]cnc12)c1ccc([N+](=O)[O-])cc1 [Example 4, 6-(2-(4-nitrophenyl)propan-2-ylsulfanyl)-9H-purine]
Radiation chemical yield G, drug released 6-Mercaptopurine: 0.44 µmol/J
